From the supplement of paper PMC10849652
The other results are listed elsewhere or left out.

Chains of the proteins cited; added tags and fusions are not shown. Lines headed by an entry give the natural chain unless they say otherwise; changes in a name come on top.
UniProt Q9BYE7: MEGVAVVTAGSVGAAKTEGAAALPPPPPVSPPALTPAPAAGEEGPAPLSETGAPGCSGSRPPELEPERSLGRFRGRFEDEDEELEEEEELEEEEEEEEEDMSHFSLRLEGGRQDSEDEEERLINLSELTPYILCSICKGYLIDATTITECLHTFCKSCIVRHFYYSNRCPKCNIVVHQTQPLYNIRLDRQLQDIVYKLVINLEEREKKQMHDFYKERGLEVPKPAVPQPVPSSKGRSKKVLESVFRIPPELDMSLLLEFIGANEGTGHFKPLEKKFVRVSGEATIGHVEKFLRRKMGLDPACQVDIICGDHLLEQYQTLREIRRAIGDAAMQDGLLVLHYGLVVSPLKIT
UniProt P56589: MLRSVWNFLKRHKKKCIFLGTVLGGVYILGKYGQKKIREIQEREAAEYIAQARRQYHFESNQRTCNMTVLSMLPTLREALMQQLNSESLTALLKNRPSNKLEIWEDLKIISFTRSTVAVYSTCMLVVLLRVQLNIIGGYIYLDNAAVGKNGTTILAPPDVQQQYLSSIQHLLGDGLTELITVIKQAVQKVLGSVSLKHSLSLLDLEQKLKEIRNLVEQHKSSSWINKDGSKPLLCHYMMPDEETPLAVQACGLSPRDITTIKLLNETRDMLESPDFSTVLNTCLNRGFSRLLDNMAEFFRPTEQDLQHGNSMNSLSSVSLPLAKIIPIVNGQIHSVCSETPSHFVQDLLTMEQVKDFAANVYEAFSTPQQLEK
UniProt P35558, whole entry, looked up: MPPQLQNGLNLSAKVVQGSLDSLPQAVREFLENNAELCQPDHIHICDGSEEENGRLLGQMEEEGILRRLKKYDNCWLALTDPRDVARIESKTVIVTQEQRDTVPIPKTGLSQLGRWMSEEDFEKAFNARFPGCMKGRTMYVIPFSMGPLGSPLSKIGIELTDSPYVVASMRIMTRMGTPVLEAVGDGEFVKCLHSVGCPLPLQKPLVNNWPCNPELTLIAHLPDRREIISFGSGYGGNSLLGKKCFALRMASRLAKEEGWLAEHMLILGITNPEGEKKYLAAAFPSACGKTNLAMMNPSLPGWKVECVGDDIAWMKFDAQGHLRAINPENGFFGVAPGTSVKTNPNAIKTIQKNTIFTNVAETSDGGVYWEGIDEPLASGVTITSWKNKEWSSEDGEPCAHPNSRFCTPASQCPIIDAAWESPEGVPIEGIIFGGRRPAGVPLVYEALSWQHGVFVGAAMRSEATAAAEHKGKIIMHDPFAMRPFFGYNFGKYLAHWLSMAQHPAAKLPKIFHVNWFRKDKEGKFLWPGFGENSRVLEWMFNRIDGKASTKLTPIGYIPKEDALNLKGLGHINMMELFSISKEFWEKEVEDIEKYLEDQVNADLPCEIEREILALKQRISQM
UniProt Q9H792: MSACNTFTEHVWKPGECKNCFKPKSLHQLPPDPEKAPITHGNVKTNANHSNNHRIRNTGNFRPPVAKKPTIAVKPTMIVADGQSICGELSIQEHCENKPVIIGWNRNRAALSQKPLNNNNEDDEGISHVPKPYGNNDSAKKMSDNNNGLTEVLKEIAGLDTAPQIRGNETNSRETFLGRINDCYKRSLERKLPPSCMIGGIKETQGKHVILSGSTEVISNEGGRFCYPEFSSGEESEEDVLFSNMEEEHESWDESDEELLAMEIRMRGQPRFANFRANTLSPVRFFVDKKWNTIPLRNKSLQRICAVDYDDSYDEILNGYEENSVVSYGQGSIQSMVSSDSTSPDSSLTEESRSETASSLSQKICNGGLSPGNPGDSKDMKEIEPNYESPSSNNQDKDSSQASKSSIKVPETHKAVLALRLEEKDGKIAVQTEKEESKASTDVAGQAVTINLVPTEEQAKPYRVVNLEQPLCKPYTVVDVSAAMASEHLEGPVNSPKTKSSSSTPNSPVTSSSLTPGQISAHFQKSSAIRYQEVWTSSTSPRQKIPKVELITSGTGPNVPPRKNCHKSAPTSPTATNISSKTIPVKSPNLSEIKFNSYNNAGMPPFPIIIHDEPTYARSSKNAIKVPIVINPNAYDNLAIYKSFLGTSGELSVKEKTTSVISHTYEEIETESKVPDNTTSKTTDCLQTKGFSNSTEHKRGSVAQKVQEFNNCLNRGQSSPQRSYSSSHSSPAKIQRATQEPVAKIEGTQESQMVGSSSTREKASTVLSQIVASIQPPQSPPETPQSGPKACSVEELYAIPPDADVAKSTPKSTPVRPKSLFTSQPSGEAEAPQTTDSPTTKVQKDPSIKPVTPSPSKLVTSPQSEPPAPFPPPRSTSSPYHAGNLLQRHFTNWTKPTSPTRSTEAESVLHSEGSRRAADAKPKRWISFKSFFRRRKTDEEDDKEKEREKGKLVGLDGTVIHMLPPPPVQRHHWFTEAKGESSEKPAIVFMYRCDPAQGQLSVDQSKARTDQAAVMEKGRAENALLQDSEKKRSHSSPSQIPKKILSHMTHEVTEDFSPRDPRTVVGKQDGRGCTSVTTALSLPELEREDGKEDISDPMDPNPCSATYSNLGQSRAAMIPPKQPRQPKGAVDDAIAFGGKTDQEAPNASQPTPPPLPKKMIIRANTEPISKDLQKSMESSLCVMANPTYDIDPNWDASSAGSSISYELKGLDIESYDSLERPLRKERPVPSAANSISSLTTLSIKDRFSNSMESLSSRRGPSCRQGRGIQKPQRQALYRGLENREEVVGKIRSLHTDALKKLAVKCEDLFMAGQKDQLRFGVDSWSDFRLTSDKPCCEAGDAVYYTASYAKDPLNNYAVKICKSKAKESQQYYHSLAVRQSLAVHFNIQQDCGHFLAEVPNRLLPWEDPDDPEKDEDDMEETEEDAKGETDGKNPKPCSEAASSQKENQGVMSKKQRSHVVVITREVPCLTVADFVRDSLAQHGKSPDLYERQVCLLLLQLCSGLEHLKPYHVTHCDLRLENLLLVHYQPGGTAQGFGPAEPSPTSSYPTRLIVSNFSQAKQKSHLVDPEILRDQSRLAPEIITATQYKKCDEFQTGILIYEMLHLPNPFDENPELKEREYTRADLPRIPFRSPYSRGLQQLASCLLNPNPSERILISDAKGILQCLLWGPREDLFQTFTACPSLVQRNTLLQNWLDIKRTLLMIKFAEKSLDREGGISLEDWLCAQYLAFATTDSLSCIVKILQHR
UniProt O15055: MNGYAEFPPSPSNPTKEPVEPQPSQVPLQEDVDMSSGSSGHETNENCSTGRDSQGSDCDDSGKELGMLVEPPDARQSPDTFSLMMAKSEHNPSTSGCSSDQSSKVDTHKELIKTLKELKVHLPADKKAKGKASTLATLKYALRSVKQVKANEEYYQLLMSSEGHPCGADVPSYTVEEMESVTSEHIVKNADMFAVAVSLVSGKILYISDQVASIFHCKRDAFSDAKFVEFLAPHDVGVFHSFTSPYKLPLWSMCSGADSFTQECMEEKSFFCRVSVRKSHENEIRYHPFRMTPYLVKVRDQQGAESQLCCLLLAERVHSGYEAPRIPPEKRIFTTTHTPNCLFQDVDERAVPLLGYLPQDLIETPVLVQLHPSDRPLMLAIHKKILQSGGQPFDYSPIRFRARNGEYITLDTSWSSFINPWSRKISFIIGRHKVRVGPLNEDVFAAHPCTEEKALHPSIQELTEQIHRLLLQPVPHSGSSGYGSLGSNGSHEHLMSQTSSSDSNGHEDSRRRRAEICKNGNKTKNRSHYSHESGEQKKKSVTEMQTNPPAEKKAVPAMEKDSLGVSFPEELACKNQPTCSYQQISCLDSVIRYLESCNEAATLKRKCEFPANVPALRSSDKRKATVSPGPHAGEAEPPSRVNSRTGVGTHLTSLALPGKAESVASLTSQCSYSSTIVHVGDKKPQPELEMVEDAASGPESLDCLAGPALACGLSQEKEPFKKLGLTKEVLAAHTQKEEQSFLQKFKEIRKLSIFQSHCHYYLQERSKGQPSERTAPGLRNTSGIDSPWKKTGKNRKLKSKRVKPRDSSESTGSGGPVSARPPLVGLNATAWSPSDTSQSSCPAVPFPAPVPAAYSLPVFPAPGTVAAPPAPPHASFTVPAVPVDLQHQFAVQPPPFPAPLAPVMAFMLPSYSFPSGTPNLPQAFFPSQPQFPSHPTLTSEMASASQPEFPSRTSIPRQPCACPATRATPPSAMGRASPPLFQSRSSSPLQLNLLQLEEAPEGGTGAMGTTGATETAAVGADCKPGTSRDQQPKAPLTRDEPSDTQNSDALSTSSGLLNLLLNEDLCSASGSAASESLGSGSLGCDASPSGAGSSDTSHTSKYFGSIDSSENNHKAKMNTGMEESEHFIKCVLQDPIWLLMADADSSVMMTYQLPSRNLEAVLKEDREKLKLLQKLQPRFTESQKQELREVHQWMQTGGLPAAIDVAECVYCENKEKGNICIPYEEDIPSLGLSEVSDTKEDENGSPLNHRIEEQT
UniProt Q9NWS1: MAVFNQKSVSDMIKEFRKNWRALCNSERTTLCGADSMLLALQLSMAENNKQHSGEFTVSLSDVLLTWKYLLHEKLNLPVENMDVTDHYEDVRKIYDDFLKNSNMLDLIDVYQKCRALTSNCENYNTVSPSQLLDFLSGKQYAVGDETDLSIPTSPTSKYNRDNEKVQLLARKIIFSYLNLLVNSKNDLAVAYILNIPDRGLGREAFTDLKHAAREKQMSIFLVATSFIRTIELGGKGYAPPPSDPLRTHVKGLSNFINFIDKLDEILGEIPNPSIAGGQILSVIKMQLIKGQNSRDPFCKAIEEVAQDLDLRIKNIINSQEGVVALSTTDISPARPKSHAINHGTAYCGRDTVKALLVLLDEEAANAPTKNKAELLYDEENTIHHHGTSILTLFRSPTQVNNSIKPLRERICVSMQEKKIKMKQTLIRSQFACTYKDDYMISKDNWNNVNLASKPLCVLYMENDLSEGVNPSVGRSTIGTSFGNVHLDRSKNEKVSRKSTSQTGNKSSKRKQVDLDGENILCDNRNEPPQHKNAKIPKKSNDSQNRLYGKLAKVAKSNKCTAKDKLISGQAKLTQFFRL
UniProt Q3KNV8: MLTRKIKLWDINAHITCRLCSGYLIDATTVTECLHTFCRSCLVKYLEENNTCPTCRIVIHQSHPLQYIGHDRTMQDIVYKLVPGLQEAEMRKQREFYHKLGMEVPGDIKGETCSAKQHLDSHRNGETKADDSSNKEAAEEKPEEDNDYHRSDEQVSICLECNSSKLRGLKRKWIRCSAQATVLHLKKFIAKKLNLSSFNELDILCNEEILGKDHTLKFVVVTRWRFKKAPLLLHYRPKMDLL
UniProt P27815: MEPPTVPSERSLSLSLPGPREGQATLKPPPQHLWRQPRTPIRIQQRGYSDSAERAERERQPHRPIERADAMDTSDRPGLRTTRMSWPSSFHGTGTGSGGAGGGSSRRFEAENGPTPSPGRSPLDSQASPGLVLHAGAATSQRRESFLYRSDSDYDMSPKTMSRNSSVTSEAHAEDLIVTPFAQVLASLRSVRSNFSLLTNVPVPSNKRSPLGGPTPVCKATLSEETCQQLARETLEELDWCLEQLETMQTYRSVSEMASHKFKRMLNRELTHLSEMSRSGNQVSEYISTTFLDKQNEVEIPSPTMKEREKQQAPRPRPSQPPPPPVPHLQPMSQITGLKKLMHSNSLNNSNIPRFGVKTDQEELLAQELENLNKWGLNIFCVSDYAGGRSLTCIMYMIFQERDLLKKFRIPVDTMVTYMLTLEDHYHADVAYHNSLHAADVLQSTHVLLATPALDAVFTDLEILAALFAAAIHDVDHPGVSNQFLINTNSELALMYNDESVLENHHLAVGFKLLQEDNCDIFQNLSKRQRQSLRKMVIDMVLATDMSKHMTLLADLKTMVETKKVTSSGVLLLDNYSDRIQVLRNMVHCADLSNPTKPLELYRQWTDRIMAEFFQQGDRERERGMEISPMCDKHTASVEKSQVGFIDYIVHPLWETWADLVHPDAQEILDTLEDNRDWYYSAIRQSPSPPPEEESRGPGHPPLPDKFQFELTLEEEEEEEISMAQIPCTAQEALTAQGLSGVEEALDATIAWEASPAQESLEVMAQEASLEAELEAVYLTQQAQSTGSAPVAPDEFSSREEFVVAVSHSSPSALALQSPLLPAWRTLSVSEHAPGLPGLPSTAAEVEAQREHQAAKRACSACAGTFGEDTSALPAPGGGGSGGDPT

What was measured:
Test in all cases: log2 fold change, soluble protein after heating vs DMSO (PISA); higher = thermal stabilisation; K562 lysate, 10 uM; active = over 0.2 and 3.5 SD of the protein, either way, in both replicates (recomputed)
[1] = compound: CC(=O)c1cnc2ccc(-c3cc(Cl)c(O)c(Cl)c3)nc2c1N[C@H]1CC[C@H](CN(C)C)CC1
Outline: (§1)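 K562 pellets were dounce-homogenised in PBS pH 7.4 containing 1 mM MgCl2, and the crude extract, at 1 mg/mL protein, was exposed to 10 μM compound for 30 min. Aliquots were heated for 3 min across 48°C-58°C, pooled, brought to 0.5% NP-40 at 4°C and spun at 21,000xg for 90 min, with the supernatant taken as soluble protein. TMTpro 16plex LC-MS/MS with equalised channel sums quantified that protein. Values are log-two fold changes in thermal stability relative to solvent controls, taken from duplicates.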

ralimetinib = compound: CC(C)(C)Cn1c(N)nc2ccc(-c3[nH]c(C(C)(C)C)nc3-c3ccc(F)cc3)nc21 [ralimetinib]
Outline: as §1

[2] = compound: CC(C)(O)CC(=O)NCCn1ccc2ncnc(Nc3ccc(Oc4cccc(C(F)(F)F)c4)c(Cl)c3)c21
Outline: as §1

[3] = compound: CC(C)C1=C2N=C(C=C(N2N=C1)NCC3=CC=CC=C3)NCCCCCCN
Outline: as §1

[4] = compound: CC1=C(C(CC(=O)N1)C2=CC=C(C=C2)C(F)(F)F)C(=O)NC3=C(C=C4C(=C3)C=NN4)F
Outline: as §1

[5] = compound: CC1=C(C2=C(C=C1)C(=O)C3=CC=CC=C3N2CCCN)C
Outline: as §1

[6] = compound: CC1=C(C=C(C=C1)NC(=O)C2=CC(=CC=C2)C(C)(C)C#N)NC3=CC4=C(C=C3)N=CN(C4=O)C
Outline: as §1

[7] = compound: CC1=C(C=C(C=C1)NC(=O)C2=CC(=CC=C2)N(C)C)NC(=O)C3=CC=C(C=C3)O
Outline: as §1

[8] = compound: CC1=CC=C(C=C1)SC2=C3C=C(SC3=CN=C2)C(=O)N
Outline: as §1

vemurafenib = compound: CCCS(=O)(=O)Nc1ccc(F)c(C(=O)c2c[nH]c3ncc(-c4ccc(Cl)cc4)cc23)c1F [vemurafenib]
Outline: as §1

[9] = compound: CCCS(=O)(=O)Nc1ccc(F)c(C(=O)c2c[nH]c3ncc(Cl)cc23)c1F
Outline: as §1

volasertib = compound: CC[C@@H]1C(=O)N(C)c2cnc(Nc3ccc(C(=O)N[C@H]4CC[C@H](N5CCN(CC6CC6)CC5)CC4)cc3OC)nc2N1C(C)C [volasertib]
Outline: as §1

[10] = compound: CCn1c(C(=O)N(C2CC2)C2CC2)cc2c3c(ncn3C)c(Nc3cc(C)n(C)n3)nc21
Outline: as §1

[11] = compound: CCn1cc(-c2ccnc3[nH]c(-c4cccc(CN(C)C)c4)cc23)c(-c2ccc(NC(=O)N(C)C)cc2)n1
Outline: as §1

[12] = compound: CN1CCC(CNc2ccc3ncc(-c4cccc(OC(F)(F)F)c4)n3n2)CC1
Outline: as §1

saracatinib = compound: CN1CCN(CCOc2cc(OC3CCOCC3)c3c(Nc4c(Cl)ccc5c4OCO5)ncnc3c2)CC1 [saracatinib]
Outline: as §1

sotrastaurin = compound: CN1CCN(c2nc(C3=C(c4c[nH]c5ccccc45)C(=O)NC3=O)c3ccccc3n2)CC1 [sotrastaurin]
Outline: as §1

[13] = compound: CC[C@@H]1C(=O)N(C)c2cnc(Nc3ccc(C(=O)NC4CCN(C)CC4)cc3OC)nc2N1C1CCCC1
Outline: as §1

ibrutinib = compound: C=CC(=O)N1CCC[C@@H](n2nc(-c3ccc(Oc4ccccc4)cc3)c3c(N)ncnc32)C1 [ibrutinib]
Outline: as §1

barasertib = compound: CCN(CCCOc1ccc2c(Nc3cc(CC(=O)Nc4cccc(F)c4)[nH]n3)ncnc2c1)CCOP(=O)(O)O [barasertib]
Outline: as §1

Measured: log2 fold change

PCGF6 (UniProt Q9BYE7)
inactive: [1] 0.238 | ralimetinib -0.017 | [2] -0.064 | [3] 0 | [4] -0.031 | [5] -0.011 | [6] 0.129 | [7] 0.104 | [8] 0.118 | vemurafenib -0.132 | [9] -0.286 | volasertib -0.083 | [10] 0.03 | [11] -0.111 | [12] 0.098 | saracatinib -0.04 | sotrastaurin 0.021

PEX3 (UniProt P56589)
inactive: [1] -0.037 | [5] -0.035 | [6] -0.031 | [8] -0.116 | [9] 0.077 | [13] -0.02 | volasertib 0.059 | [11] -0.184 | [12] 0.306 | saracatinib -0.04 | sotrastaurin -0.013

PCK1 (UniProt P35558)
inactive: ibrutinib 0 | [1] -0.074 | [8] -0.172 | vemurafenib 0.2 | [9] 0.026 | barasertib 0.287 | volasertib -0.117 | [11] -1.18 | [12] 0.461

PEAK1 (UniProt Q9H792)
inactive: ibrutinib 0.105 | ralimetinib -0.038 | [2] 0.037 | [3] -0.135 | [4] 0.098 | [5] -0.026 | [6] -0.06 | [7] 0.097 | vemurafenib 0.031 | barasertib 0.075 | [10] 0.051 | [11] 0.011 | [12] -0.014 | saracatinib -0.019 | sotrastaurin -0.011

Pulled one by one from above, two records:
PCGF6 (UniProt Q9BYE7)
inactive: [1] 0.238 | ralimetinib -0.017 | [2] -0.064 | [3] 0 | [4] -0.031 | [5] -0.011 | [6] 0.129 | [7] 0.104 | [8] 0.118 | vemurafenib -0.132 | [9] -0.286 | volasertib -0.083 | [10] 0.03 | [11] -0.111 | [12] 0.098 | saracatinib -0.04 | sotrastaurin 0.021

PEX3 (UniProt P56589)
inactive: [1] -0.037 | [5] -0.035 | [6] -0.031 | [8] -0.116 | [9] 0.077 | [13] -0.02 | volasertib 0.059 | [11] -0.184 | [12] 0.306 | saracatinib -0.04 | sotrastaurin -0.013

Next part.

PER2 (UniProt O15055)
inactive: vemurafenib 0.027 | [11] -0.339 | [12] 0.031

PARPBP (UniProt Q9NWS1)
inactive: ibrutinib 0.046 | [3] -0.124 | [4] -0.033 | [5] -0.032 | vemurafenib 0.13 | barasertib 0.057 | [13] 0.07 | [11] -0.371 | [12] 0.193 | saracatinib 0.019

PCGF3 isoform 2 (UniProt Q3KNV8)
inactive: [3] 0.085 | [6] -0.032 | sotrastaurin 0.193

PDE8A (UniProt O60658)
inactive: ibrutinib 0.183 | [3] -0.274 | [6] 0.035 | vemurafenib -0.205 | barasertib -0.105 | sotrastaurin 0.016

PDE4A (UniProt P27815)
inactive: ibrutinib 0.156 | ralimetinib -0.091 | [2] 0.009 | [3] -0.082 | [4] 0.071 | [5] 0.009 | [6] -0.042 | [7] 0 | vemurafenib 0.008 | barasertib -0.038 | [13] 0.139 | [10] 0.078 | [11] 0.206 | [12] -0.003 | saracatinib -0.071 | sotrastaurin -0.003
